In PMC9110732 one finds binding data, which are given here for 1 substance.

Results are given in words; binding and its absence hold for the method and conditions named. In cells and extracts the contact can be indirect. A yes stands for co-enrichment or nearness to the bait. Other partners may have been found.

The test has as its target T1, trans-2,3-enoyl-CoA reductase-like (TECRL) (human (endogenous in hiPSC-CMs)) (UniProt Q5HYJ1).
T1 sequence: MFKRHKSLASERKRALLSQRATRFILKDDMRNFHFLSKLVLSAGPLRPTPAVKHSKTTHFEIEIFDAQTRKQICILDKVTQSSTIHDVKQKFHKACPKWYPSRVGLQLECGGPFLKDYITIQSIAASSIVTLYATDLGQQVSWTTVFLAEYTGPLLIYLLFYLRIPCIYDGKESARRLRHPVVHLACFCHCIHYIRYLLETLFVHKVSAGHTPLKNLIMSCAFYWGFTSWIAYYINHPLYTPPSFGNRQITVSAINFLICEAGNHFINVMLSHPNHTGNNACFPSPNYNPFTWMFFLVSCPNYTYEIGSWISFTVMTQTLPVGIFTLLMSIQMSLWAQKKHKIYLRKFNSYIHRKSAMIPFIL
Nature of the test: affinity purification with mass spectrometry; mass spectrometry of the TECRL co-immunoprecipitate from hiPSC-CMs overexpressing TECRL (Table S6).

“ATP synthase subunit beta, mitochondrial (ATPB) (from UniProt P06576 48-529)”: the binding result is listed as “binds”.
